Results published in patent publication US12729225B2, “Non-canonical SWI/SNF complex and uses thereof” (Dana-Farber Cancer Institute, Inc., priority 2018, dated 2026).

Tested on: mSWI/SNF complexes
Test: mSWI/SNF complex purification with HA-tagged baits and mass spectrometry (peptide counts)
Set-up: species or system human
[1] = 293_HA-BRD7 bait purification, mass spectrometry, total peptide count per identified protein
[2] = 293_HA-BRD7 bait purification, mass spectrometry, unique peptide count per identified protein

Row | Molecule | Total [1] | Unique [2] | Total (293_HA-BRD7: HA-BRD7 bait purification, total peptide count per co-purified protein) | Unique (293_HA-BRD7: HA-BRD7 bait purification, unique peptide count per co-purified protein)
1 | CPS1 (protein, UniProt P31327 39-1500, looked up) Carbamoyl-phosphate synthase …: LSVKAQTAHIVLEDGTKMKGYSFGHPSSVAGEVVFNTGLGGYPEAITDPAYKGQILTMANPIIGNGGAPDTTALDELGLSKYLESNGIKVSGLLVLDYSKDYNHWLATKSLGQWLQEEKVPAIYGVDTRMLTKIIRDKGTMLGKIEFEGQPVDFVDPNKQNLIAEVSTKDVKVYGKGNPTKVVAVDCGIKNNVIRLLVKRGAEVHLVPWNHDFTKMEYDGILIAGGPGNPALAEPLIQNVRKILESDRKEPLFGISTGNLITGLAAGAKTYKMSMANRGQNQPVLNITNKQAFITAQNHGYALDNTLPAGWKPLFVNVNDQTNEGIMHESKPFFAVQFHPEVTPGPIDTEYLFDSFFSLIKKGKATTITSVLPKPALVASRVEVSKVLILGSGGLSIGQAGEFDYSGSQAVKAMKEENVKTVLMNPNIASVQTNEVGLKQADTVYFLPITPQFVTEVIKAEQPDGLILGMGGQTALNCGVELFKRGVLKEYGVKVLGTSVESIMATEDRQLFSDKLNEINEKIAPSFAVESIEDALKAADTIGYPVMIRSAYALGGLGSGICPNRETLMDLSTKAFAMTNQILVEKSVTGWKEIEYEVVRDADDNCVTVCNMENVDAMGVHTGDSVVVAPAQTLSNAEFQMLRRTSINVVRHLGIVGECNIQFALHPTSMEYCIIEVNARLSRSSALASKATGYPLAFIAAKIALGIPLPEIKNVVSGKTSACFEPSLDYMVTKIPRWDLDRFHGTSSRIGSSMKSVGEVMAIGRTFEESFQKALRMCHPSIEGFTPRLPMNKEWPSNLDLRKELSEPSSTRIYAIAKAIDDNMSLDEIEKLTYIDKWFLYKMRDILNMEKTLKGLNSESMTEETLKRAKEIGFSDKQISKCLGLTEAQTRELRLKKNIHPWVKQIDTLAAEYPSVTNYLYVTYNGQEHDVNFDDHGMMVLGCGPYHIGSSVEFDWCAVSSIRTLRQLGKKTVVVNCNPETVSTDFDECDKLYFEELSLERILDIYHQEACGGCIISVGGQIPNNLAVPLYKNGVKIMGTSPLQIDRAEDRSIFSAVLDELKVAQAPWKAVNTLNEALEFAKSVDYPCLLRPSYVLSGSAMNVVFSEDEMKKFLEEATRVSQEHPVVLTKFVEGAREVEMDAVGKDGRVISHAISEHVEDAGVHSGDATLMLPTQTISQGAIEKVKDATRKIAKAFAISGPFNVQFLVKGNDVLVIECNLRASRSFPFVSKTLGVDFIDVATKVMIGENVDEKHLPTLDHPIIPADYVAIKAPMFSWPRLRDADPILRCEMASTGEVACFGEGIHTAFLKAMLSTGFKIPQKGILIGIQQSFRPRFLGVAEQLHNEGFKLFATEATSDWLNANNVPATPVAWPSQEGQNPSLSSIRKLIRDGSIDLVINLPNNNTKFVHDNYVIRRTAVDSGIPLLTNFQVTKLFAEAVQKSRKVDSKSLFHYRQYSAGKAA | 1 | 1 |  | 
2 | ANP32E (protein, UniProt Q9BTT0 1-268, looked up) Acidic leucine-rich nuclear …: MEMKKKINLELRNRSPEEVTELVLDNCLCVNGEIEGLNDTFKELEFLSMANVELSSLARLPSLNKLRKLELSDNIISGGLEVLAEKCPNLTYLNLSGNKIKDLSTVEALQNLKNLKSLDLFNCEITNLEDYRESIFELLQQITYLDGFDQEDNEAPDSEEEDDEDGDEDDEEEEENEAGPPEGYEEEEEEEEEEDEDEDEDEDEAGSELGEGEEEVGLSYLMKEEIQDEEDDDDYVEEGEEEEEEEEGGLRGEKRKRDAEDDGEEEDD | 1 | 1 |  | 
3 | NME4 (protein, UniProt O00746 29-187, looked up) Nucleoside diphosphate …: GSGGPSWTRERTLVAVKPDGVQRRLVGDVIQRFERRGFTLVGMKMLQAPESVLAEHYQDLRRKPFYPALIRYMSSGPVVAMVWEGYNVVRASRAMIGHTDSAEAAPGTIRGDFSVHISRNVIHASDSVEGAQREIQLWFQSSELVSWADGGQHSSIHPA | 1 | 1 |  | 
4 | SH2D3C (protein, UniProt Q8N5H7 1-860, looked up) SH2 domain-containing protein …: MTEGTKKTSKKFKFFKFKGFGSLSNLPRSFTLRRSSASISRQSHLEPDTFEATQDDMVTVPKSPPAYARSSDMYSHMGTMPRPSIKKAQNSQAARQAQEAGPKPNLVPGGVPDPPGLEAAKEVMVKATGPLEDTPAMEPNPSAVEVDPIRKPEVPTGDVEEERPPRDVHSERAAGEPEAGSDYVKFSKEKYILDSSPEKLHKELEEELKLSSTDLRSHAWYHGRIPREVSETLVQRNGDFLIRDSLTSLGDYVLTCRWRNQALHFKINKVVVKAGESYTHIQYLFEQESFDHVPALVRYHVGSRKAVSEQSGAIIYCPVNRTFPLRYLEASYGLGQGSSKPASPVSPSGPKGSHMKRRSVTMTDGLTADKVTRSDGCPTSTSLPRPRDSIRSCALSMDQIPDLHSPMSPISESPSSPAYSTVTRVHAAPAAPSATALPASPVARRSSEPQLCPGSAPKTHGESDKGPHTSPSHTLGKASPSPSLSSYSDPDSGHYCQLQPPVRGSREWAATETSSQQARSYGERLKELSENGAPEGDWGKTFTVPIVEVTSSFNPATFQSLLIPRDNRPLEVGLLRKVKELLAEVDARTLARHVTKVDCLVARILGVTKEMQTLMGVRWGMELLTLPHGRQLRLDLLERFHTMSIMLAVDILGCTGSAEERAALLHKTIQLAAELRGTMGNMFSFAAVMGALDMAQISRLEQTWVTLRQRHTEGAILYEKKLKPFLKSLNEGKEGPPLSNTTFPHVLPLITLLECDSAPPEGPEPWGSTEHGVEVVLAHLEAARTVAHHGGLYHTNAEVKLQGFQARPELLEVFSTEFQMRLLWGSQGASSSQARRYEKFDKVLTALSHKLEPAVRSSEL | 1 | 1 |  | 
5 | HLTF (protein, UniProt Q14527 1-1009, looked up) Helicase-like transcription …: MSWMFKRDPVWKYLQTVQYGVHGNFPRLSYPTFFPRFEFQDVIPPDDFLTSDEEVDSVLFGSLRGHVVGLRYYTGVVNNNEMVALQRDPNNPYDKNAIKVNNVNGNQVGHLKKELAGALAYIMDNKLAQIEGVVPFGANNAFTMPLHMTFWGKEENRKAVSDQLKKHGFKLGPAPKTLGFNLESGWGSGRAGPSYSMPVHAAVQMTTEQLKTEFDKLFEDLKEDDKTHEMEPAEAIETPLLPHQKQALAWMVSRENSKELPPFWEQRNDLYYNTITNFSEKDRPENVHGGILADDMGLGKTLTAIAVILTNFHDGRPLPIERVKKNLLKKEYNVNDDSMKLGGNNTSEKADGLSKDASRCSEQPSISDIKEKSKFRMSELSSSRPKRRKTAVQYIESSDSEEIETSELPQKMKGKLKNVQSETKGRAKAGSSKVIEDVAFACALTSSVPTTKKKMLKKGACAVEGSKKTDVEERPRTTLIICPLSVLSNWIDQFGQHIKSDVHLNFYVYYGPDRIREPALLSKQDIVLTTYNILTHDYGTKGDSPLHSIRWLRVILDEGHAIRNPNAQQTKAVLDLESERRWVLTGTPIQNSLKDLWSLLSFLKLKPFIDREWWHRTIQRPVTMGDEGGLRRLQSLIKNITLRRTKTSKIKGKPVLELPERKVFIQHITLSDEERKIYQSVKNEGRATIGRYFNEGTVLAHYADVLGLLLRLRQICCHTYLLTNAVSSNGPSGNDTPEELRKKLIRKMKLILSSGSDEECAICLDSLTVPVITHCAHVFCKPCICQVIQNEQPHAKCPLCRNDIHEDNLLECPPEELARDSEKKSDMEWTSSSKINALMHALTDLRKKNPNIKSLVVSQFTTFLSLIEIPLKASGFVFTRLDGSMAQKKRVESIQCFQNTEAGSPTIMLLSLKAGGVGLNLSAASRVFLMDPAWNPAAEDQCFDRCHRLGQKQEVIITKFIVKDSVEENMLKIQNKKRELAAGAFGTKKPNADEMKQAKINEIRTLIDL | 1 | 1 |  | 
6 | NKAPL (protein, UniProt Q5M9Q1 1-402, looked up) NKAP-like protein: MPPVSRSSYSEDIVGSRRRRRSSSGSPPSPQSRCSSWDGCSRSHSRGREGLRPPWSELDVGALYPFSRSGSRGRLPRFRNYAFASSWSTSYSGYRYHRHCYAEERQSAEDYEKEESHRQRRLKERERIGELGAPEVWGPSPKFPQLDSDEHTPVEDEEEVTHQKSSSSDSNSEEHRKKKTSRSRNKKKRKNKSSKRKHRKYSDSDSNSESDTNSDSDDDKKRVKAKKKKKKKKHKTKKKKNKKTKKESSDSSCKDSEEDLSEATWMEQPNVADTMDLIGPEAPIIHTSQDEKPLKYGHALLPGEGAAMAEYVKAGKRIPRRGEIGLTSEEIGSFECSGYVMSGSRHRRMEAVRLRKENQIYSADEKRALASFNQEERRKRESKILASFREMVHKKTKEKDDK | 1 | 1 |  | 
7 | CPSF2 (protein, UniProt Q9P2I0 1-782, looked up) Cleavage and polyadenylation …: MTSIIKLTTLSGVQEESALCYLLQVDEFRFLLDCGWDEHFSMDIIDSLRKHVHQIDAVLLSHPDPLHLGALPYAVGKLGLNCAIYATIPVYKMGQMFMYDLYQSRHNTEDFTLFTLDDVDAAFDKIQQLKFSQIVNLKGKGHGLSITPLPAGHMIGGTIWKIVKDGEEEIVYAVDFNHKREIHLNGCSLEMLSRPSLLITDSFNATYVQPRRKQRDEQLLTNVLETLRGDGNVLIAVDTAGRVLELAQLLDQIWRTKDAGLGVYSLALLNNVSYNVVEFSKSQVEWMSDKLMRCFEDKRNNPFQFRHLSLCHGLSDLARVPSPKVVLASQPDLECGFSRDLFIQWCQDPKNSIILTYRTTPGTLARFLIDNPSEKITEIELRKRVKLEGKELEEYLEKEKLKKEAAKKLEQSKEADIDSSDESDIEEDIDQPSAHKTKHDLMMKGEGSRKGSFFKQAKKSYPMFPAPEERIKWDEYGEIIKPEDFLVPELQATEEEKSKLESGLTNGDEPMDQDLSDVPTKCISTTESIEIKARVTYIDYEGRSDGDSIKKIINQMKPRQLIIVHGPPEASQDLAECCRAFGGKDIKVYMPKLHETVDATSETHIYQVRLKDSLVSSLQFCKAKDAELAWIDGVLDMRVSKVDTGVILEEGELKDDGEDSEMQVEAPSDSSVIAQQKAMKSLFGDDEKETGEESEIIPTLEPLPPHEVPGHQSVFMNEPRLSDFKQVLLREGIQAEFVGGVLVCNNQVAVRRTETGRIGLEGCLCQDFYRIRDLLYEQYAIV |  |  | 14 | 13
8 | ACTL6B (protein) MSGGVYGGDEVGALVFDIGSFSVRAGYAGEDCPKADFPTTVGLLAAEEGGGLELEGDKEKKGKIFHIDTNALHVPRDGAEVMSPLKNGMIEDWECFRAILDHTYSKHVKSEPNLHPVLMSEAPWNTRAKREKLTELMFEQYNIPAFFLCKTAVLTAFANGRSTGLVLDSGATHTTAIPVHDGYVLQQGIVKSPLAGDFISMQCRELFQEMAIDIIPPYMIAAKEPVREGAPPNWKKKEKLPQVSKSWHNYMCNEVIQDFQASVLQVSDSPYDEQVAAQMPTVHYEMPNGYNTDYGAERLRIPEGLFDPSNVKGLSGNTMLGVGHVVTTSIGMCDIDIRPGLYGSVIVTGGNTLLQGFTDRLNRELSQKTPPSMRLKLIASNSTMERKFSPWIGGSILASLGTFQQMWISKQEYEEGGKQCVERKCP | 1 | 1 |  | 
9 | VDAC3 (protein, UniProt Q9Y277 2-283, looked up) Non-selective voltage-gated …: CNTPTYCDLGKAAKDVFNKGYGFGMVKIDLKTKSCSGVEFSTSGHAYTDTGKASGNLETKYKVCNYGLTFTQKWNTDNTLGTEISWENKLAEGLKLTLDTIFVPNTGKKSGKLKASYKRDCFSVGSNVDIDFSGPTIYGWAVLAFEGWLAGYQMSFDTAKSKLSQNNFALGYKAADFQLHTHVNDGTEFGGSIYQKVNEKIETSINLAWTAGSNNTRFGIAAKYMLDCRTSLSAKVNNASLIGLGYTQTLRPGVKLTLSALIDGKNFSAGGHKVGLGFELEA | 1 | 1 |  | 
